In patent publication US20040063662A1, “Selenophene anti-tumor agents” (priority 1996, published 2004):

System: panel of sixty different human tumor cell lines
Assay: NCI human tumor cell panel: whole panel (mean graph summary)
Settings: for Delta Log10 TGI: line Delta; for Range Log10 TGI: line Range

SMILES	Delta Log10 TGI	Range Log10 TGI
O=Cc1ccc(-c2ccc(-c3ccc[se]3)[se]2)[se]1 [NSC 675244]	−4.78	1.37
O=Cc1ccc(-c2ccc(-c3ccc(C=O)[se]3)[se]2)[se]1 [NSC 675245]	−4.18	1.91^
OCc1ccc(-c2ccc(-c3cccs3)[se]2)s1 [NSC 675344]	3.46	4.00
O=Cc1ccc(-c2ccc(-c3ccc(C=O)s3)[se]2)s1 [NSC 675345]	−4.21	1.61^
O=Cc1ccc(-c2ccc(-c3cccs3)[se]2)s1 [NSC 675346]	−4.42	3.13^
O=Cc1ccc(-c2ccc(-c3ccc(C=O)[se]3)s2)[se]1 [NSC 676630]	−4.17	2.18^
